According to PubChem BioAssay AID2685 (National Center for Advancing Translational Sciences (NCATS), 2010):
The other results are listed elsewhere or left out. The main result of the screen is listed elsewhere. These columns were measured beside it and carry no call. Compounds called inactive in the main read-out are mostly missing here. Words in brackets tell the shape of the fitted curve; partial curves, single points and poor fits give uncertain potencies.

Test: qHTS Assay for Lipid Storage Modulators in Drosophila S3 Cells;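 on cell number change: cells counted by Cell Tracker Red CMTPX staining in the red channel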
Conditions: BODIPY lipid droplet fluorescence, 18-24 h; for cell number change: measured here: cell count max response, cells fed with added oleic acid
Summary of the method: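 Drosophila S3 cells loaded with oleic acid (400 uM, as added) and compounds at several concentrations; lipid droplets imaged by 488-nm laser-scanning cytometry, 500–530 nm intensity and object ratio to cell channel. Percent activity normalized to 20 uM Triacsin C.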

[1] = measured here: cell number channel AC50, cells fed with added oleic acid
[2] = measured here: lipid fluorescence (Fed channel) AC50, cells fed with added oleic acid

Compound | cell number change | AC50 [1] | AC50 [2]
CN1CCC(=O)N([C@H](CC#N)c2ccccc2)CC1 | 16.8% |  | 
c1ccc(-[n+]2nc(Nc3cccc4ccccc34)sc2-c2c3ccccc3cc3ccccc23)cc1 | -87.3% | 5.17 µM [falling, full curve] | 14.6 µM [falling, partial curve, poor fit]
COC(=O)C1CCCN1S(=O)(=O)c1ccccc1NC(=O)c1cc(OC)c(OC)c(OC)c1 (stereo not given) | -25.6% |  | 20.6 µM [falling, single point]
CCCCNS(=O)(=O)c1ccc(OC)c2ncccc12 |  | 2.59 µM [rising, single point] | 
COCCNc1nc(C(C)(C)C)nc2c1nnn2Cc1ccccc1Cl |  |  | 2.91 µM [rising, partial curve]
Cc1oc2ccc(Br)cc2c(=O)c1-c1nn[nH]n1 | 22.2% |  | 14.6 µM [rising, partial curve]
OC1(c2cccc(C(F)(F)F)c2)CCNCC1 | 74.5% | 5.8 µM [falling, partial curve] | 
NC(=O)c1ccccc1NC(=O)CC12CC3CC(CC(Br)(C3)C1)C2 |  |  | 0.82 µM [falling, full curve]
CCn1c(=O)c(C(C)=O)nc2ccccc21 | 69% | 29.1 µM [rising, single point] | 7.31 µM [rising, partial curve, poor fit]
CCOc1ccccc1NC(=O)CSc1nnnn1-c1ccccc1 |  | 0.651 µM [rising, single point] | 6.51 µM [rising, partial curve]
CC(c1ccccc1)N1CCn2c(nc3cc(NC(=O)c4cccs4)ccc32)C1 (stereo not given) | 20.7% |  | 13 µM [rising, partial curve]
COC(=O)c1[nH]c2ccc(F)cc2c1NC(=O)Nc1ccc(OC)cc1 | -16.4% |  | 29.1 µM [falling, single point]
CCCCN1CCN=C1Nc1ccccc1 | -0.599% |  | 16.4 µM [rising, partial curve]
COc1ccc(-c2noc(CN(C(=O)c3ccoc3C)C(C)C)n2)cc1 | 9.57% |  | 
COc1cccc(-n2c(=O)c3sccc3n(CC(=O)NC3CCCC3)c2=O)c1 | 10.1% |  | 0.146 µM [rising, single point]
Brc1cccc(-c2nnc3sc(CNC4CCCC4)cn23)c1 | 11.3% |  | 
Cc1c(C(=O)O)oc2ccc(S(=O)(=O)NCc3ccccc3)cc12 | 1.65% |  | 0.461 µM [rising, single point]
Cn1nnnc1Sc1ncnc2scc(-c3ccc(C#N)cc3)c12 | -14.9% |  | 0.00461 µM [falling, full curve, poor fit]
O=C(CN1C(=O)NC2(CCCCC2)C1=O)N1CCN(c2ncccn2)CC1 | -4.84% |  | 0.92 µM [rising, full curve, poor fit]
CCOC(=O)CN(C(=O)CN1CCOCC1)c1ccc(Br)cc1 | 1.83% |  | 8.2 µM [rising, partial curve]
COc1ccc(C)cc1NC(=O)C(c1ccccc1)N1CCNC(=O)C1 (stereo not given) | 23.4% |  | 0.00461 µM [rising, full curve, poor fit]

Compound | cell number change | AC50 [1] | AC50 [2]
CCOc1ccccc1CNC(=O)C1CCN(c2nn3c(=O)cc(C)nc3s2)CC1 | -11.2% |  | 6.51 µM [falling, single point]
Cc1ccc(C(=O)NCc2ccccn2)cc1NC1=NC2CS(=O)(=O)CC2S1 (stereo not given) | 37.8% |  | 
CCc1nnc(NS(=O)(=O)c2ccc(NC(=S)NC(=O)c3ccc(Br)cc3)cc2)s1 | 5.99% | 6.51 µM [rising, single point] | 
COc1ccccc1CNC(=O)c1cc2c(s1)CS(=O)(=O)C2 | -1.39% | 0.651 µM [falling, full curve, poor fit] | 1.16 µM [falling, full curve]
O=C(c1ccccc1)N1CCN(CC#CC2(O)CCCCC2)CC1 | 2.61% | 6.51 µM [rising, single point] | 
CC(=O)Nc1ccc(NC(=O)C2CCCCN2S(=O)(=O)c2ccc(C(C)(C)C)cc2)cc1 (stereo not given) | 10.8% |  | 11.6 µM [falling, single point]
COc1ccccc1-c1c(C)nn2c(N3CCC(C)CC3)cc(C)nc12 | 10% |  | 
C/C(=N/NS(=O)(=O)c1ccc(C)cc1)c1c[nH]c2ccccc12 | 0.495% |  | 6.51 µM [rising, single point]
Cc1ccc(N(C(=O)c2ccc(CN3CCOCC3)o2)C(C(=O)NCCC(C)C)c2cccs2)c(C)c1 (stereo not given) | 28.6% |  | 1.84 µM [falling, partial curve, poor fit]
COC(=O)c1ccc(NC(=O)c2nc(S(=O)(=O)Cc3cccc(C)c3)ncc2Cl)cc1 |  |  | 6.51 µM [falling, single point]
O=C(Nc1nnc(-c2ccc(Br)cc2)o1)C1=COCCO1 | 17.7% |  | 
O=C(OCC(=O)N1CCOCC1)c1cccc(F)c1 | -13.5% |  | 25.9 µM [rising, single point]
CC1(C)OC(=O)C(=Cc2ccc(-c3ccc(S(N)(=O)=O)cc3)o2)C(=O)O1 | -42.1% | 0.0206 µM [falling, full curve, poor fit] | 
CC(C)n1c(=S)[nH]c2c1c(=O)[nH]c(=O)n2C | -8.77% |  | 
COC(=O)C(Cc1cnc(Cl)s1)(C(=O)OC)c1ccc([N+](=O)[O-])cc1 | 67.2% | 18.4 µM [rising, single point] | 29.1 µM [rising, single point]
CCCCC1(C)NC(=O)c2c(C)sc(C(=O)OCC)c2N1 (stereo not given) | 5.65% |  | 6.51 µM [falling, single point]
N/C(=N\OC(=O)c1ccc2c(c1)OCO2)c1ccc(Cl)cc1 | 2.76% |  | 
Cc1ccc(-c2nnn(CC(=O)N(Cc3ccco3)C(C(=O)NC(C)(C)C)c3ccc(C)o3)n2)o1 (stereo not given) | -54.8% | 10.3 µM [falling, partial curve] | 3.26 µM [falling, partial curve, poor fit]
COc1ccc(C)cc1S(=O)(=O)N1CC(C)OC(C)C1 (stereo not given) | -0.0228% | 5.8 µM [rising, single point] | 
CCC(=O)Nc1nonc1-c1nc2ccccc2n1N(C(=O)CC)C(=O)CC | -11.4% |  | 4.61 µM [falling, partial curve]
Cc1ccc(C(=O)c2ccccc2C(=O)OCC(=O)NCCc2ccc(Cl)cc2Cl)cc1 | -19.5% |  | 32.6 µM [falling, single point]

Compound | cell number change | AC50 [1] | AC50 [2]
O=C(O)c1nn(-c2ccccc2)nc1-c1nn(-c2ccccc2)nc1C(=O)O | -16.9% |  | 
C/C(=C/CCC(C)C1CCC2(C)C3CCC4C(C)(C)C(=O)CCC4(C)C3=CCC12C)C(=O)O (stereo not given) | -22.7% |  | 0.651 µM [falling, single point]
COc1ccc(-c2[nH]ncc2CN(C)Cc2cnccn2)c(OC)c1 |  |  | 2.06 µM [falling, single point]
O=C(CCCSc1nc(-c2ccco2)cc(C(F)(F)F)n1)Nc1ccc2c(c1)OCO2 | -76.1% | 29.1 µM [falling, single point] | 
Cc1ccccc1OCc1nnc(SCC(=O)Nc2ccc3nc(SCC(=O)Nc4ccccc4)sc3c2)n1C | 14.3% |  | 0.206 µM [rising, partial curve]
CCCCN(CC)CCCNC(=O)CC1Oc2ccccc2NC1=O (stereo not given) | -40.8% | 3.26 µM [falling, full curve] | 5.17 µM [falling, partial curve]
Cc1cc(C)cc(NC(=O)CS(=O)(=O)c2ccccc2)c1 | -14.8% |  | 1.46 µM [rising, partial curve, poor fit]
Cc1ccc(NC(=O)CCS(=O)(=O)c2ccc3nc(C)sc3c2)cc1 | 23.9% | 0.13 µM [rising, full curve, poor fit] | 0.146 µM [rising, full curve, poor fit]
Cc1cccc(C)c1-n1c(C)cc(/C=C2\NC(=O)NC2=O)c1C | -55.3% | 20.6 µM [falling, single point] | 20.6 µM [falling, single point]
Nc1nc(NCc2ccco2)nc(NC2CCCCC2)c1[N+](=O)[O-] | 8.04% |  | 0.259 µM [rising, full curve]
CC(=O)c1ccc(N2CCN(CC(O)COCc3ccco3)CC2)cc1 (stereo not given) | 7.52% |  | 
COCCNC(=O)COC(=O)CSCc1nc2ccccc2s1 | 6.36% |  | 
CC(C)CN(CCNC(=O)CN1C(=O)COc2ccc(S(=O)(=O)N3CCC(C)CC3)cc21)CC(C)C | 19.2% |  | 18.4 µM [rising, single point]
O=C(Nc1nc2nc(-c3ccccc3)cc(=O)n2[nH]1)c1ccc(F)cc1 | 17% |  | 32.6 µM [rising, single point]
CCCN1CCN(C(=O)C2CCN(S(=O)(=O)c3ccc4c(c3)NC(=O)C(C)S4)CC2)CC1 (stereo not given) | 14.2% |  | 0.0731 µM [rising, full curve, poor fit]
O=S(=O)(NCc1cccnc1)c1cccs1 | 5.22% |  | 
O=C(NCCCN=C1NS(=O)(=O)c2ccccc21)c1ccc(S(=O)(=O)N2CCOCC2)cc1 | -29% | 0.13 µM [falling, full curve, poor fit] | 1.46 µM [falling, full curve, poor fit]
CC(NCC(=O)Nc1ccccc1C(=O)NC1CC1)c1ccc(F)cc1F (stereo not given) | -29.9% | 2.91 µM [falling, full curve, poor fit] | 2.31 µM [falling, single point]
COc1ccc(-c2cc(C(F)F)n3ncc(C(=O)N4CCCCC4)c3n2)cc1 | -0.61% |  | 18.4 µM [falling, single point]

Some of the entries so far, as comma-separated lines:
Compound,cell number change,AC50 [1],AC50 [2]
O=C(CN1C(=O)NC2(CCCCC2)C1=O)N1CCN(c2ncccn2)CC1,-4.84%,,"0.92 µM [rising, full curve, poor fit]"
O=C(c1ccccc1)N1CCN(CC#CC2(O)CCCCC2)CC1,2.61%,"6.51 µM [rising, single point]",
Cc1cccc(C)c1-n1c(C)cc(/C=C2\NC(=O)NC2=O)c1C,-55.3%,"20.6 µM [falling, single point]","20.6 µM [falling, single point]"
